## Results of single-concentration screens

The chains behind the UniProt entries cited, without tags or fusion partners.
UniProt P9WPC5, whole entry: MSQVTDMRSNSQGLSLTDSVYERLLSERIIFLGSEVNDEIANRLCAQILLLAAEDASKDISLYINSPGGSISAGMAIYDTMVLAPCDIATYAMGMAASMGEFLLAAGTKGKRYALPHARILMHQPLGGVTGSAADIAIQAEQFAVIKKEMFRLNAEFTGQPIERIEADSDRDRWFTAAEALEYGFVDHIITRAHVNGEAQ
UniProt P9WPC3, whole entry partner: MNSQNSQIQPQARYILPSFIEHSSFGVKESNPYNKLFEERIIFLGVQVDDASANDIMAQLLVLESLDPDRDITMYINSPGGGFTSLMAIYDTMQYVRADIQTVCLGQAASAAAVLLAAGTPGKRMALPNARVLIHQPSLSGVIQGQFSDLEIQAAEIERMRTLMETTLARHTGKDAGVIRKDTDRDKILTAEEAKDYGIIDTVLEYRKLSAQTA
UniProt P9WNZ1, whole entry: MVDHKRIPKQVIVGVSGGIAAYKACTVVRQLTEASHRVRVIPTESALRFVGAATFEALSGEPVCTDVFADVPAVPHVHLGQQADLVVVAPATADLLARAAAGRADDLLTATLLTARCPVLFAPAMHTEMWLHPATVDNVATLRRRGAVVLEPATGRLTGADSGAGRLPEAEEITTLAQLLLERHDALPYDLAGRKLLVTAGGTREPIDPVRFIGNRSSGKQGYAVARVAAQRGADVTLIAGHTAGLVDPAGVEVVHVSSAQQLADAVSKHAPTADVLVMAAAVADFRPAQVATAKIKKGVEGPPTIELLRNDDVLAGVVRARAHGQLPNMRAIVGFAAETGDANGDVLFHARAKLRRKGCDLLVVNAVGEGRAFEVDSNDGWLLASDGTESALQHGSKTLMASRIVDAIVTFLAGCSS

The values are deposited in ChEMBL (CHEMBL3988442, “University of Dundee, Small-Polar-MMV Screening Library” (2021)).

ClpP1P2: 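Protease assay of ClpP1P2, read by the AMC dye that it sets free. Target: ClpP1P2, Mycobacterium tuberculosis (UniProt P9WPC5 and UniProt P9WPC3). Tested at 50 µM. Higher reads as stronger inhibition, judged from the few compounds that gave an IC50. Most other retested compounds had strongly negative values. Of about 69,000 compounds tested this way, about 10 (0.015%) reached 50% or more in at least one test.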
CoaBC: 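Coenzyme A biosynthesis protein CoaBC, Mycobacterium tuberculosis (UniProt P9WNZ1). Enzyme assay of CoaBC with a phosphate dye (Biomol Green) read at 650 nm. Compounds at 30 µM. Higher reads as stronger inhibition, judged from the few compounds that gave an IC50. Most strong results did not repeat in a second test. Size under these conditions: about 67,000 compounds, about 40 of them at 50% or above in at least one test.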
Toxoplasma: 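Assay of Toxoplasma gondii numbers, read through their beta-galactosidase reporter with a colour substrate. Compounds at 10 µM. Higher reads as fewer parasites (inferred from which compounds were picked for retests). Of about 67,000 compounds tested this way, about 260 (0.38%) reached 50% or more in at least one test.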

Values are the deposited “Percent Effect”, in %.
How 0% and 100% were set is not recorded. Most values in the screen are low, and negative values occur.
The compounds are a random part of those screened.

For Cc1noc(CCCC(=O)NC(C)c2ccccn2)n1 (stereo unspecified) the result was ClpP1P2: 14.49%; CoaBC: 6.117%; Toxoplasma: -22.16%. COCC(=O)NCc1cc(=O)n2c(n1)CN(Cc1cccs1)CCC2 read ClpP1P2: -7.799%; CoaBC: 0%; Toxoplasma: 6.858%. CC(=O)NC[C@H]1COCc2nc3c(C)cccc3n21 read ClpP1P2: -9.897%; CoaBC: 3.311%; Toxoplasma: -1.986%. With CC(C)Nc1cc(-c2c[nH]nc2C2CCN(C(=O)C3CC3)C2)ccn1 (stereo unspecified) the screen gave ClpP1P2: -7.485%; CoaBC: 2.219%; Toxoplasma: 77.26%. For COc1ccc(S(=O)(=O)Nc2cccnc2-n2cncn2)cc1C the result was ClpP1P2: -6.533%; CoaBC: 2.19%; Toxoplasma: -10.01%.

With COC(=O)c1ccc(N2CCN(C(=O)c3ccc(O)nc3)C(C)C2)cc1 (stereo unspecified) the screen gave ClpP1P2: -2.679%; CoaBC: 4.592%; Toxoplasma: 2.457%. With Cc1cc(CSc2ccccn2)on1 the screen gave ClpP1P2: -6.256%; CoaBC: -21.9%; Toxoplasma: 2.663%. For CN(C)CCO[C@H]1CN(Cc2ccoc2)[C@@H]2COC[C@H]12 the result was ClpP1P2: 7.497%; CoaBC: -1.954%. CC(NCc1cccc(COC2CCCC2)c1)c1cnn(C)c1 (stereo unspecified) read ClpP1P2: -1.664%; CoaBC: 0.3236%; Toxoplasma: 3.905%. With Cc1noc(C)c1CN1C[C@@H]2COC[C@H](C(=O)N3CCOCC3)[C@@H]2C1 the screen gave ClpP1P2: -8.034%; CoaBC: 4.75%.

For O=C(O)C(F)(F)F.O=C(O)C(F)(F)F.c1cncc(C2COC3(CCN(Cc4nccs4)CC3)C2)c1 (stereo unspecified) the result was Toxoplasma: -9.061%. CC1CN(c2ncnc3cccc(F)c23)CCO1 (stereo unspecified) gave ClpP1P2: 4.818%; CoaBC: 8.861%; Toxoplasma: -1.181%. COc1nc2c(cc1C(=O)NCc1noc(-c3ccco3)n1)CCC2 read ClpP1P2: -13.83%; CoaBC: 3.44%; Toxoplasma: 8.409%. With CC(=O)N1CCN(C(C)c2nnc(CC(C)C)o2)CC1 (stereo unspecified) the screen gave ClpP1P2: 4.063%; CoaBC: -0.8929%; Toxoplasma: -0.0612%. Result for Cc1nc(CN2C(=O)C[C@@H]3[C@@H]2CCN3S(=O)(=O)C2CC2)cs1 was ClpP1P2: 27.37%; CoaBC: 8.239%.

For O=C(NCc1ccccc1CN1CCCC1)Nc1nncs1 the result was ClpP1P2: 6.983%; CoaBC: -1.768%; Toxoplasma: 4.973%. With CC(C)OC(=O)N1C[C@H]2CC[C@@H]1CN(C(=O)c1ccccc1)C2 the screen gave ClpP1P2: -3.471%; CoaBC: 2.355%. With CNS(=O)(=O)c1cccc(CNC(=O)c2c(C)oc(C)c2C)c1 the screen gave ClpP1P2: 6.493%; CoaBC: 11.49%; Toxoplasma: 0.7312%. CC(NC(=O)CSCC#N)c1ccccc1 (stereo unspecified) gave ClpP1P2: 17.47%; CoaBC: 3.84%; Toxoplasma: -2.323%. Cc1nnc(C2CCN(C(=O)c3ccc(-n4cccc4)cc3)CC2)s1 read ClpP1P2: 6.458%; CoaBC: 16.05%; Toxoplasma: 11.65%.

With COC[C@@]12CCC[C@@H]1CN(C(=O)CN(C)C)C2 the screen gave ClpP1P2: -8.086%; CoaBC: 6.182%. CN(Cc1cncnc1)[C@H]1CN(C(=O)c2ccco2)[C@@H]2CCCO[C@@H]21 read ClpP1P2: -1.605%; CoaBC: 2.963%. For COCCC1(CNC(=O)NCC2CCCN(C)C2)CCCC1 (stereo unspecified) the result was ClpP1P2: -0.05706%; CoaBC: -19.91%; Toxoplasma: -1.667%. Cc1nc(Nc2nnc(C)s2)cc(C2CCCN2c2ccncc2)n1 (stereo unspecified) read ClpP1P2: -10.68%; CoaBC: 5.328%; Toxoplasma: -11.25%. Result for N#CC1(NC(=O)c2ccc(-c3nc(C4CC4)n[nH]3)cc2)CC1 was ClpP1P2: -8.865%; CoaBC: 3.944%; Toxoplasma: -1.486%.

For Cc1noc(C2CCC3(CCN(C(=O)C4=CCCCC4)CC3)O2)n1 (stereo unspecified) the result was ClpP1P2: -5.399%; CoaBC: 4.846%; Toxoplasma: 3.668%. OC1CCCOC12CCN(c1ncccn1)CC2 (stereo unspecified) read ClpP1P2: 11.23%; CoaBC: 7.559%; Toxoplasma: 1.969%.

The last 2 entries again:

SMILES,ClpP1P2,CoaBC,Toxoplasma
Cc1noc(C2CCC3(CCN(C(=O)C4=CCCCC4)CC3)O2)n1 (stereo unspecified),-5.399%,4.846%,3.668%
OC1CCCOC12CCN(c1ncccn1)CC2 (stereo unspecified),11.23%,7.559%,1.969%